Experimental data reported in PMC9381593.
Results are given in words; binding and its absence hold for the method and conditions named. Binding seen in cells or lysates may run through a third protein. Some entries that bind do so weakly or less than the wild type.

Protein sequences, listed by entry. Tags and fused reporters are not part of them.
UniProt O95983: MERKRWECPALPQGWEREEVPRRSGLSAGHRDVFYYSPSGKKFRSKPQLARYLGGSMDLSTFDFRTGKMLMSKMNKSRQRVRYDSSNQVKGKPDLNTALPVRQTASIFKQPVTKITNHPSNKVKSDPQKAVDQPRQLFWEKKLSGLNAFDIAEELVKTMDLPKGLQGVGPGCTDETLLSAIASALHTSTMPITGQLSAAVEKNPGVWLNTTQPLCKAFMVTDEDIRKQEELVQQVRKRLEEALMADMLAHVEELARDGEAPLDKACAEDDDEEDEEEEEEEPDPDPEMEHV
UniProt Q13547: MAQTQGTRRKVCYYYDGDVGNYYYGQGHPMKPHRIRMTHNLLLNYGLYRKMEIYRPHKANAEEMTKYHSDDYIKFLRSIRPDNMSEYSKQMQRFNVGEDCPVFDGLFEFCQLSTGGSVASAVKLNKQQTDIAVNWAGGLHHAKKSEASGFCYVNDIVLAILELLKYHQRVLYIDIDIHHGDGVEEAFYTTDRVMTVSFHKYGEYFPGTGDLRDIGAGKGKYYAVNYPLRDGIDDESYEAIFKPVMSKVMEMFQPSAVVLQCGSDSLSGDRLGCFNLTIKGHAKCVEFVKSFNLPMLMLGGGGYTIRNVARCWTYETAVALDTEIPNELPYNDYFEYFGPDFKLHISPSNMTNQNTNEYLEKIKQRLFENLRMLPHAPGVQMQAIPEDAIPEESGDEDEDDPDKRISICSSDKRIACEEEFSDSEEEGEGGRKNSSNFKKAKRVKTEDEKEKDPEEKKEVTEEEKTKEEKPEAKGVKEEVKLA
UniProt Q14839: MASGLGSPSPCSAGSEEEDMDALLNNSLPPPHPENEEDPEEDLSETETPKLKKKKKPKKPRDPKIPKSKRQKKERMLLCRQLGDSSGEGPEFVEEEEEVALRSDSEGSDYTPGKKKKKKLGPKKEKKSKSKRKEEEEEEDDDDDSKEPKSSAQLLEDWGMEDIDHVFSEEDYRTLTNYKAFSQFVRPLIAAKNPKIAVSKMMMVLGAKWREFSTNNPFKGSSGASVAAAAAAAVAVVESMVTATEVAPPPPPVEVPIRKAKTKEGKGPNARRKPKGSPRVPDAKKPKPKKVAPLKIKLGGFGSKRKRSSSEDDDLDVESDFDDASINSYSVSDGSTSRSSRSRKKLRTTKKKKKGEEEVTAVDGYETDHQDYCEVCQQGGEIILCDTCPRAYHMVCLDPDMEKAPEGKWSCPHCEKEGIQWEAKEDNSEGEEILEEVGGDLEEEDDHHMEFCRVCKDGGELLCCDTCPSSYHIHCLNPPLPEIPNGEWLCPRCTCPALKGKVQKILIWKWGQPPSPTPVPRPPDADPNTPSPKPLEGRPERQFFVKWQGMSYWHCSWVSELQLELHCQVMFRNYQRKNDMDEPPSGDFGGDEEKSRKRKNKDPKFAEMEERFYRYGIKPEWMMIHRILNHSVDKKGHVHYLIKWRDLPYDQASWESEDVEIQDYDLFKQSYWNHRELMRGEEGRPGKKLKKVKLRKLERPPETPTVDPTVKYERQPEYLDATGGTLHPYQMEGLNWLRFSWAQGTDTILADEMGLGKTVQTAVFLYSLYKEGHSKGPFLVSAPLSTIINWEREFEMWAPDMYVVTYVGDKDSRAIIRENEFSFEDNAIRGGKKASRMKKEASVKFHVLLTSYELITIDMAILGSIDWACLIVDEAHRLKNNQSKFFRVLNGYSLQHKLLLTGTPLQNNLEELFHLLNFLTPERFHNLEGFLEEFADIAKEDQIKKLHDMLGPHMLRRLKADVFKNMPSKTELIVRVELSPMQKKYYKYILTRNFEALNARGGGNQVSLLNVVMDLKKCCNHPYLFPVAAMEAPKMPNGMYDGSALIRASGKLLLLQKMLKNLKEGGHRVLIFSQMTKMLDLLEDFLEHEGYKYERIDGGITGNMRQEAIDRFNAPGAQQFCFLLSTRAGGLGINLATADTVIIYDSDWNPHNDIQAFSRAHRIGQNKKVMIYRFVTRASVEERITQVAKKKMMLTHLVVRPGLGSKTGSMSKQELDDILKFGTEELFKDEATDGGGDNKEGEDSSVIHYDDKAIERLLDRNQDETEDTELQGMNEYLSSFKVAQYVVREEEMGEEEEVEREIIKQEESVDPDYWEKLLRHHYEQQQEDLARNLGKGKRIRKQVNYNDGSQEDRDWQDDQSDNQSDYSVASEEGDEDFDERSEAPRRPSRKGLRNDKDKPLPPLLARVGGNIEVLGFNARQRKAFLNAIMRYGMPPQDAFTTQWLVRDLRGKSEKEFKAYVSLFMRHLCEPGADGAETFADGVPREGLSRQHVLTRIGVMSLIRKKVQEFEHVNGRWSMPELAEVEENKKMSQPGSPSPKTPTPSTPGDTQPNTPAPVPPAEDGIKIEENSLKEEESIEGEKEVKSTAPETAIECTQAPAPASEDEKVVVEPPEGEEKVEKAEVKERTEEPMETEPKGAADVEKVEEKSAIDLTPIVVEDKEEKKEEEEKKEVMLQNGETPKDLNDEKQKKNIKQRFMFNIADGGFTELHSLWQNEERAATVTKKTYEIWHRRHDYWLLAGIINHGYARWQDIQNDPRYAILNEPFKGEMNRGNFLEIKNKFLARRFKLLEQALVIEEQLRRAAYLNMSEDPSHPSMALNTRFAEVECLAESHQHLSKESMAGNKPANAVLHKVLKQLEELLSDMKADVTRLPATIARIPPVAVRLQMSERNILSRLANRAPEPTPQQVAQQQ

Molecular target: Methyl-CpG binding domain protein 3 (human (endogenous in Huh7)) (UniProt O95983)
Experiment: co-IP; endogenous IP from Huh7 lysate with anti-MBD3 antibody or control IgG, overnight at 4 °C, protein A/G beads; M2 buffer (20 mM Tris-HCl pH 7.5, 250 mM NaCl, 3 mM EDTA, 3 mM EGTA, 0.5% NP-40); western blot

| binding | Substance |
| --- | --- |
| binds | Histone Deacetylases 1 (from UniProt Q13547 1-482) (enzyme) |
| binds | chromodomain helicase DNA binding protein 4 (from UniProt Q14839 1-1912) |
